## Assay results

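Mouse JNK3 activity from prestimulated HepG2 lysate, measured as phospho-c-Jun AlphaScreen signal after two hours of kinase reaction plus three hours detection.
Each compound ran as a dilution series from about 0.6 nM up to 57.1 µM.
Fitted AC50 for either an inhibiting or an activating curve; a lower value means greater potency.
Calls come from the fitted dose curve (inhibitor, activator, inactive or inconclusive); every row here is inconclusive, including some full curves, so the exact cut-off is unclear.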

Values are in µM.
All entries here are filed as inconclusive.
Only part of the assay is shown, chiefly results filed as inconclusive.
Potencies fitted to partial, single-point or poorly fitting curves are rough.
Some entries filed as inconclusive have a full curve.
The first word of each remark tells which way the curve ran; it can be opposite to the aim of the assay.

Compound,fitted potency (µM),curve
COCCn1c(=O)c(-c2ccc(OC)cc2)nc2cnc(Oc3ccccc3)nc21,19.95,"activator, partial curve"
O=S(=O)(O)c1ccc2c(N=Nc3cccc4ccccc34)c(O)c(S(=O)(=O)O)cc2c1,3.162,"inhibitor, partial curve"
CCC1C(=O)OCC1Cc1cncn1C (configuration not stated),0.02512,"activator, full curve, poor fit"
CC1(C)C(=O)N(CCN2CCC(C(=O)c3ccc(F)cc3)CC2)c2ccccc21,0.00631,"activator, full curve, poor fit"
Cc1c2ccccc2c(C)c2c1ccc1ccccc12,31.62,"activator, partial curve"
CN(C)c1ccc(N=Nc2ccccc2)cc1,10,"inhibitor, partial curve"
CCOC(=O)C1=C(O)C(=O)N(Cc2ccccc2)C1,39.81,"inhibitor, partial curve"
O=c1cc(-c2ccccc2)oc2cc(O)cc(O)c12,5.012,"inhibitor, partial curve"
Cc1cc(N=Nc2ccccc2C)ccc1N,12.59,"inhibitor, partial curve"
CCCN(CCC)C(=O)Cc1c(-c2ccc(Cl)cc2)nc2c(Cl)cc(Cl)cn12,3.981,"activator, partial curve, poor fit"
O=c1c(CCc2ccccc2)nc2cncnc2n1Cc1ccc(F)cc1,31.62,"activator, single point"
O=S(=O)(O)c1ccc2c(N=Nc3c(O)ccc4ccccc34)cccc2c1,2.512,"inhibitor, partial curve"
CCCCCCCC/C=C\CCCCCCCC(=O)N[C@@H](CO)Cc1ccc(O)cc1,15.85,"inhibitor, partial curve"
COc1cccc(Cn2c(=O)c(-c3ccccc3)nc3cnc(N4CCNCC4)nc32)c1,25.12,"activator, partial curve"
C[N+]1(C)[C@@H]2CC[C@H]1CC(OC(=O)[C@@H](CO)c1ccccc1)C2 (some centres not stated),0.001995,"activator, full curve, poor fit"
CN(Cc1cnc2nc(N)nc(N)c2n1)c1ccc(C(=O)N[C@H](CCC(=O)O)C(=O)O)cc1,5.012,"activator, partial curve, poor fit"
CN[C@@H]1C[C@H](c2ccc(Cl)c(Cl)c2)c2ccccc21,2.512,"activator, partial curve, poor fit"
CCC/C=C(\CCC)C(NS(=O)(=O)c1ccc(Cl)cc1)c1ccc(C(=O)OC)cc1 (configuration not stated),25.12,"activator, partial curve"
NCCC[C@@H](CC(=O)N[C@@H]1CCCC[C@H]1C(=O)N[C@H](CC(=O)N[C@@H](CCC(=O)O)CC(=O)O)Cc1c[nH]c2ccccc12)NC(=O)C[C@H](Cc1c[nH]c2ccccc12)NC(=O)[C@@H]1CCCC[C@H]1N,10,"inhibitor, partial curve, poor fit"
CN1CCN(c2ncc3nc(-c4cccs4)c(=O)n(Cc4cccs4)c3n2)CC1,3.981,"activator, full curve"
Cc1ccc(C(=O)Nc2ccc(S(=O)(=O)O)c3cc(S(=O)(=O)O)cc(S(=O)(=O)O)c23)cc1NC(=O)c1cccc(NC(=O)Nc2cccc(C(=O)Nc3cc(C(=O)Nc4ccc(S(=O)(=O)O)c5cc(S(=O)(=O)O)cc(S(=O)(=O)O)c45)ccc3C)c2)c1,0.631,"activator, full curve"
COc1ccc2c(c1)[C@]13CCCC[C@@H]1[C@H](C2)N(C)CC3,12.59,"activator, full curve, poor fit"
COc1cc2c(cc1O)C[C@H]1c3c(cc(OC)c(O)c3-2)CCN1C,39.81,"inhibitor, single point"
CCCC/C=C/C(NC(=O)OCc1ccccc1Cl)c1ccccc1 (configuration not stated),25.12,"activator, partial curve"
CCCN1CCC[C@H](c2cccc(O)c2)C1,31.62,"activator, partial curve, poor fit"
O=c1c(O)c(-c2ccc(O)c(O)c2)oc2cc(O)ccc12,31.62,"inhibitor, partial curve"
COc1ccc(-c2nc3cnc(N4CCN(C)CC4)nc3n(Cc3cccc(OC)c3)c2=O)cc1,15.85,"activator, partial curve"
CC(C)c1cccc2c([Si](C)(C)C)c3c(nc12)-c1cccc(=O)n1C3,15.85,"activator, partial curve"
CC(=O)NS(=O)(=O)c1ccc(N)cc1,0.001995,"activator, full curve, poor fit"
CC(C)(C)NC[C@H](O)c1cc(O)cc(O)c1,2.512,"activator, partial curve"
O=C(Oc1ccccc1)N1CCC2(CCCN(c3ncccn3)C2)CC1,39.81,"activator, partial curve, poor fit"
O=C(CCl)c1ccccc1,0.03162,"activator, full curve, poor fit"
COc1cccc2c1C(=O)c1c(O)c3c(c(O)c1C2=O)C[C@@](O)(C(C)=O)C[C@@H]3O[C@H]1C[C@H](N)[C@H](O)[C@H](C)O1,15.85,"inhibitor, partial curve"
CC1=NS(=O)(=O)c2cc(Cl)ccc2N1,0.1,"activator, full curve, poor fit"
O=S(=O)(O)c1ccc(N=Nc2ccc3c(S(=O)(=O)O)cccc3c2O)c2ccccc12,2.512,"inhibitor, partial curve"
Cc1cn([C@H]2C=C[C@H](CO)O2)c(=O)[nH]c1=O,19.95,"activator, partial curve, poor fit"
Cn1ccc2cc3c(cc21)CCN3C(=O)Nc1cccnc1,31.62,"inhibitor, partial curve, poor fit"
Cc1ccc(OP(=O)(Oc2ccc(C)cc2)Oc2ccc(C)cc2)cc1,31.62,"activator, partial curve"
N[C@H](COP(=O)(O)O)C(=O)O,2.512,"activator, partial curve, poor fit"
CC(C)[C@@H](CC(=O)N[C@@H]1CCNC[C@H]1C(=O)N[C@H](CC(=O)N[C@@H](CCC(=O)O)CC(=O)O)Cc1c[nH]c2ccccc12)NC(=O)C[C@H](CO)NC(=O)[C@@H]1CNCC[C@H]1N,3.981,"inhibitor, full curve, poor fit"
O=c1cc(-c2ccccc2)oc2cc(O)c(O)c(O)c12,12.59,"inhibitor, partial curve"
COc1ccc(/C=C(\C#N)C(N)=O)cc1OC,0.0631,"activator, full curve"
O=[N+]([O-])c1ccc2cn[nH]c2c1,0.01995,"activator, full curve, poor fit"
CN(C)c1ccc2nc3ccc(=[N+](C)C)cc-3sc2c1,7.943,"inhibitor, partial curve"
O=C1NC(=O)C(c2ccccc2[N+](=O)[O-])=C1Nc1ccc(O)c(Cl)c1,31.62,"inhibitor, single point"

For reference, 6 entries once more:

Compound	fitted potency (µM)	curve
CCCC/C=C/C(NC(=O)OCc1ccccc1Cl)c1ccccc1 (configuration not stated)	25.12	activator, partial curve
Cc1ccc(C(=O)Nc2ccc(S(=O)(=O)O)c3cc(S(=O)(=O)O)cc(S(=O)(=O)O)c23)cc1NC(=O)c1cccc(NC(=O)Nc2cccc(C(=O)Nc3cc(C(=O)Nc4ccc(S(=O)(=O)O)c5cc(S(=O)(=O)O)cc(S(=O)(=O)O)c45)ccc3C)c2)c1	0.631	activator, full curve
CN[C@@H]1C[C@H](c2ccc(Cl)c(Cl)c2)c2ccccc21	2.512	activator, partial curve, poor fit
O=c1c(O)c(-c2ccc(O)c(O)c2)oc2cc(O)ccc12	31.62	inhibitor, partial curve
Cn1ccc2cc3c(cc21)CCN3C(=O)Nc1cccnc1	31.62	inhibitor, partial curve, poor fit
O=c1cc(-c2ccccc2)oc2cc(O)c(O)c(O)c12	12.59	inhibitor, partial curve

The results are deposited in PubChem (AID530; NCATS, 2006).